According to the supplement of paper PMC12595434, “Development of retinoid nuclear receptor pathway antagonists through targeting aldehyde dehydrogenase 1A3” (iScience, 2025):
This is one part of the list. Single values of this set are uncertain.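 Tm was set to 64 °C where no melting was found, and many curves are irregular.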

Amino acid sequences for entries named in this document (tags omitted). A change or cut given only in a name is not applied to a line headed by its entry.
UniProt Q9UGR2: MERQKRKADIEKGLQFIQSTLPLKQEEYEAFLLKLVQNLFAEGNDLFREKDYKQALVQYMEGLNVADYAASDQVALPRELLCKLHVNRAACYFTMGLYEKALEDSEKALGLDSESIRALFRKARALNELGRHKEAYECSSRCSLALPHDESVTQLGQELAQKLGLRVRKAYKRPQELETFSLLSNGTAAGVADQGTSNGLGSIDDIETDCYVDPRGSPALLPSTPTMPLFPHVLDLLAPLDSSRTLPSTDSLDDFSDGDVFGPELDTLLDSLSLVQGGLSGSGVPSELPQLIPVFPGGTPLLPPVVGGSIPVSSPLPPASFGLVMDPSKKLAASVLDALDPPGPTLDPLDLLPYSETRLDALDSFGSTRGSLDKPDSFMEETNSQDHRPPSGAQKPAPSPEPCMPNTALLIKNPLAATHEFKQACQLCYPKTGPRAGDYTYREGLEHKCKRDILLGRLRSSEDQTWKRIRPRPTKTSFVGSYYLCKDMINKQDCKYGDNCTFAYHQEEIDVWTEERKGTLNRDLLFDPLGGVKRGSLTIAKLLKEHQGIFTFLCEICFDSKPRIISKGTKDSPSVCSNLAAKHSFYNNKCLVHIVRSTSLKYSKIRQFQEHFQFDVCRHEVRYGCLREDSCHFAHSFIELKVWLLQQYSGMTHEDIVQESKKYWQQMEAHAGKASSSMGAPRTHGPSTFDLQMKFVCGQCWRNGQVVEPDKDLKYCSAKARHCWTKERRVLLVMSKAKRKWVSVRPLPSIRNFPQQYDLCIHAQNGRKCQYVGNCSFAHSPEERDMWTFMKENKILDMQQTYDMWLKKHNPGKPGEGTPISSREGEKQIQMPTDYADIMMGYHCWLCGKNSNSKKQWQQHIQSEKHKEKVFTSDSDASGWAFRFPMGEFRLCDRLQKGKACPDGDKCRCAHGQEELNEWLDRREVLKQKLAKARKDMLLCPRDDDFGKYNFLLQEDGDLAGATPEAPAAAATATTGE
UniProt Q9UQR0: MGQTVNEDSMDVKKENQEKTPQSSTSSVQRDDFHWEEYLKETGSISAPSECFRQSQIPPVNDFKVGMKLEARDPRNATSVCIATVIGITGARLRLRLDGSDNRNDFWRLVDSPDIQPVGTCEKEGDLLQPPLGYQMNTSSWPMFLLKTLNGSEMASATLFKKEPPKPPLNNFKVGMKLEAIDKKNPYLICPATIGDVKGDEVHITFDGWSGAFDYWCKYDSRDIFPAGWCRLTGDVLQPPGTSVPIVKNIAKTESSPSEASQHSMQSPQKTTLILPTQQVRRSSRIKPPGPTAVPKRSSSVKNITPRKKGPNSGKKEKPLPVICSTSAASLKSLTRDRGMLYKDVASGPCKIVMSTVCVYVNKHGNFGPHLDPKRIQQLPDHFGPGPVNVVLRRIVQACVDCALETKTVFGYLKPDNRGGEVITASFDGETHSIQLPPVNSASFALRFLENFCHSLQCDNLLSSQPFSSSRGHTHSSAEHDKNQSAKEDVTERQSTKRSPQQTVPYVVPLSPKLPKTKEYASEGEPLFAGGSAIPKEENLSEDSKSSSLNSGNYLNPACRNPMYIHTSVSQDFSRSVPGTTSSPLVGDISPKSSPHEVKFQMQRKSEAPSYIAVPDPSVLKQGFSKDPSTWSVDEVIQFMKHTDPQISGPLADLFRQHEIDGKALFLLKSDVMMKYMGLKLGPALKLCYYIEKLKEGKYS
UniProt Q9UQ49: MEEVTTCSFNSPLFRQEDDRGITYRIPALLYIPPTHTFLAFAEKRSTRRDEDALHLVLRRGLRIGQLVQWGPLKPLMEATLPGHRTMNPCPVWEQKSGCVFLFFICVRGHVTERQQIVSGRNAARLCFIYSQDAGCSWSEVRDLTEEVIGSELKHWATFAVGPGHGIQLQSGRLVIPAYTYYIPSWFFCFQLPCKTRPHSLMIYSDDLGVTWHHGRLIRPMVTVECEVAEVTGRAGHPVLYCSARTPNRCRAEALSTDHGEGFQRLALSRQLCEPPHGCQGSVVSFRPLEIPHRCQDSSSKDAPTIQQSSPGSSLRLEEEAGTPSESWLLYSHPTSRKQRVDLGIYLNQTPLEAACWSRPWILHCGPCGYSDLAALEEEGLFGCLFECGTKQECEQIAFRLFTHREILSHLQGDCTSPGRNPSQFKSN
UniProt Q9UHW5, whole entry: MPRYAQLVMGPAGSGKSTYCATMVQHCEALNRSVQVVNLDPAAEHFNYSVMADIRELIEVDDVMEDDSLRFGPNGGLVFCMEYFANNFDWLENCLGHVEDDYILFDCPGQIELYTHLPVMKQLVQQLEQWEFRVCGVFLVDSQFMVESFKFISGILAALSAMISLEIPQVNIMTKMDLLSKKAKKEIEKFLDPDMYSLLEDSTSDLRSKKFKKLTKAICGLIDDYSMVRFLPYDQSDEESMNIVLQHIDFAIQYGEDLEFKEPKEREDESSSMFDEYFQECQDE
UniProt Q9UK58: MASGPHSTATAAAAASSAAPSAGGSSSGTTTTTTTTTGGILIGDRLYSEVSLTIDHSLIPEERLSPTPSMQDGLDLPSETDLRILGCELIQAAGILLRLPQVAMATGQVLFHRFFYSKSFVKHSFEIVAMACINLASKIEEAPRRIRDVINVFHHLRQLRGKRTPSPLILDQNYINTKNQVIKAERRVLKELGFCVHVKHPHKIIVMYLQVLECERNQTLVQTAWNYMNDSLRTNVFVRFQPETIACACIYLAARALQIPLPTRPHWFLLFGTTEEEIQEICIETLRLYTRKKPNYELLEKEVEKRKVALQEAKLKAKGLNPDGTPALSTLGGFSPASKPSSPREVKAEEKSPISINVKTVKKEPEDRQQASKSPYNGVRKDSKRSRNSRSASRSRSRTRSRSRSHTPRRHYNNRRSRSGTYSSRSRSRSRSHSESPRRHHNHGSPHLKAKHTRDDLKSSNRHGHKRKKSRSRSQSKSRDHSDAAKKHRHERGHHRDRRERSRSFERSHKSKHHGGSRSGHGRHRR
UniProt Q9UHA4, whole entry: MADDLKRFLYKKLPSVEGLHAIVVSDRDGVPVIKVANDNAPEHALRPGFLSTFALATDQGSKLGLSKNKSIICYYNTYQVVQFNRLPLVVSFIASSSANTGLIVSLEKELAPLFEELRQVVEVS
UniProt Q9UHY8: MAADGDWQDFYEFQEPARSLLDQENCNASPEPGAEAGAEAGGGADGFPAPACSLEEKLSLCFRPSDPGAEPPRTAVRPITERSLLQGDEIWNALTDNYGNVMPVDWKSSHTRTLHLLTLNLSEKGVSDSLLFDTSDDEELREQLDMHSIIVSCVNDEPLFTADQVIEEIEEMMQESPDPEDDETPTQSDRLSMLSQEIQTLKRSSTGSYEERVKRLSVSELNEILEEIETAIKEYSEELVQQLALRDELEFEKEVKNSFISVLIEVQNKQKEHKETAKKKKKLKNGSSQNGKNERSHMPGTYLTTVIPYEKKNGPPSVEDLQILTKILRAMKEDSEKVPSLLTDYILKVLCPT
UniProt Q9UPW0: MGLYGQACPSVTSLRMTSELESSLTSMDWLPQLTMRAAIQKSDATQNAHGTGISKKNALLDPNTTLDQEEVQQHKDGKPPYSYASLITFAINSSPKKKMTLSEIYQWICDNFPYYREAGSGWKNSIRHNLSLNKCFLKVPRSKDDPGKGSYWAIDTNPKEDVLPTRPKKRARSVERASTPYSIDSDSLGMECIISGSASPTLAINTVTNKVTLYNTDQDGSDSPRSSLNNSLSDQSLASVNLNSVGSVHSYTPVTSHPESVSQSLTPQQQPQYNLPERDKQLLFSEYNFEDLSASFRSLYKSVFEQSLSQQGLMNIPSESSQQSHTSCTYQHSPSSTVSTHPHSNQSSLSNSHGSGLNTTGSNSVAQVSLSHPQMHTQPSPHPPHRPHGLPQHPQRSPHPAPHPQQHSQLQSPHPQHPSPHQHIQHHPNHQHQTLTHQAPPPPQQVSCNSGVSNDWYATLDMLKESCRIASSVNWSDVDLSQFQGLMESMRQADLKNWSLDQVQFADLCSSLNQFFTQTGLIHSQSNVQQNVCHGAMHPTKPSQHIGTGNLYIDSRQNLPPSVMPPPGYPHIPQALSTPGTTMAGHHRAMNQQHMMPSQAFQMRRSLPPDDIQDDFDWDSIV
UniProt Q9Y224: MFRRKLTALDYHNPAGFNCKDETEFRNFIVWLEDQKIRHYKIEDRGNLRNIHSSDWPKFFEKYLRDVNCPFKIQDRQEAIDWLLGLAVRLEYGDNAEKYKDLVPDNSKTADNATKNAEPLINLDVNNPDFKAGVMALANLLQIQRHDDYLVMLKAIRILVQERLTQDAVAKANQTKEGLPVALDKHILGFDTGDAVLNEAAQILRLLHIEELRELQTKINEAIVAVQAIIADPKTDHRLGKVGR
UniProt Q9UQ88: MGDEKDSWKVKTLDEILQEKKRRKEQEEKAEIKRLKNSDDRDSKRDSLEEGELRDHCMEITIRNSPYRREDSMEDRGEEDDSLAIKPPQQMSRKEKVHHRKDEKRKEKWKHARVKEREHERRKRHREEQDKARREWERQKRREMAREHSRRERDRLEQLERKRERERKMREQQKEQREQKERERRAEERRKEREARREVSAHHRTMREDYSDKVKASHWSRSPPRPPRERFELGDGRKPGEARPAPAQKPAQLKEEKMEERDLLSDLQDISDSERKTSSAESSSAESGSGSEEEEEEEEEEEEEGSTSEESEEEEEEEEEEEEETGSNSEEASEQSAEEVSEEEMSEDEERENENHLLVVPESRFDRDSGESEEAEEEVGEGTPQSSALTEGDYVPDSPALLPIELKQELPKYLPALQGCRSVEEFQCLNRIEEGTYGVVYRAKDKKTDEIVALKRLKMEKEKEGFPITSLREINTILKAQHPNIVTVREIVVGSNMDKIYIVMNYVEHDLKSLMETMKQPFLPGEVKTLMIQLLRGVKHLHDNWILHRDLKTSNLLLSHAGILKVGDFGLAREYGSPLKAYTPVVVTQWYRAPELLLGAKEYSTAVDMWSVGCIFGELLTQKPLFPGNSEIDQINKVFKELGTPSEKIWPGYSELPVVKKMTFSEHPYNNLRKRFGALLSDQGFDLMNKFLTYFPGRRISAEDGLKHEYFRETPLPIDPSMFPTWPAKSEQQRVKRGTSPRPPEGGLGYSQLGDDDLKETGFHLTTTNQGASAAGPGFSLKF
UniProt Q9Y281, whole entry: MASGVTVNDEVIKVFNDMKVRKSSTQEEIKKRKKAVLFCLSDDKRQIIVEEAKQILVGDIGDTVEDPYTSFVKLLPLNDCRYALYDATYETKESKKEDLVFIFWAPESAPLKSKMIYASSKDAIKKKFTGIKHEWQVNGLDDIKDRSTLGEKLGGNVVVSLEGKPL
UniProt Q9UIV1, whole entry: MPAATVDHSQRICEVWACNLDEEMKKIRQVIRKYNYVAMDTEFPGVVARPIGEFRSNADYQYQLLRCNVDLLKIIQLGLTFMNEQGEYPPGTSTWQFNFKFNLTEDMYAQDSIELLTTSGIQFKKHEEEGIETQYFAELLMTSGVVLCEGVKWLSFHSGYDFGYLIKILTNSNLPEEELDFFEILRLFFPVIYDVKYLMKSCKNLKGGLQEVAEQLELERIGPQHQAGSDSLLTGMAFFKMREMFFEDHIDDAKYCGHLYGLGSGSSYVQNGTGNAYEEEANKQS
UniProt Q9UHP3: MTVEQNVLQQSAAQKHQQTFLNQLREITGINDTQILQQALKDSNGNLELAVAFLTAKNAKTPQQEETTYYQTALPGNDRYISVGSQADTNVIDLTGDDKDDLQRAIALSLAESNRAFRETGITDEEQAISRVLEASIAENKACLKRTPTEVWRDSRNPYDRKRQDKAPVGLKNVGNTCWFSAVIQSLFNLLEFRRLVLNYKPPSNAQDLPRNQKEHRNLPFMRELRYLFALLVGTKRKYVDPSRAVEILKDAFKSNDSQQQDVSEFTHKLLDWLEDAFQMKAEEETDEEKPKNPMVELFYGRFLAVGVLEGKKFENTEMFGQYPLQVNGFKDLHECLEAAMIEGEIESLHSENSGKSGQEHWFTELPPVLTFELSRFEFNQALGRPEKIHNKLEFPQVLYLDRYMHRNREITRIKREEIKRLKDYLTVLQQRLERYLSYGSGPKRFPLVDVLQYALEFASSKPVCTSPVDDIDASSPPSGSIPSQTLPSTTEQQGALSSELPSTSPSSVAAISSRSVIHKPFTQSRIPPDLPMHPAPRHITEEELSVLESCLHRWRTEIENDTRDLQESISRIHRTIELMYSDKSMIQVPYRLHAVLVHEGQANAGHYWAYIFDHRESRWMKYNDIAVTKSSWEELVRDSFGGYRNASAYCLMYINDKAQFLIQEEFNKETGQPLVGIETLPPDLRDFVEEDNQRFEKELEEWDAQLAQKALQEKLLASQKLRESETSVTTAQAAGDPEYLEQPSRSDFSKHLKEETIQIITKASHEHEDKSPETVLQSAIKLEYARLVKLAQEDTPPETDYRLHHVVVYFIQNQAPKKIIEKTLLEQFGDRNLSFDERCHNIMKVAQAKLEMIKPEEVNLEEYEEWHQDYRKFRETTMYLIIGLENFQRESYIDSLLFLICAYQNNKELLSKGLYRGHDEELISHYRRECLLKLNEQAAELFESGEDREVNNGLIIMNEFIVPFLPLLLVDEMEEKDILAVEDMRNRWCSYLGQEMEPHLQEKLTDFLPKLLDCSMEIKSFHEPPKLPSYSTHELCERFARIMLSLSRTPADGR

Compound: CCc1cnccc1C(=O)Nc1cc2c(cc1F)NC(=O)CC2
Test: melting temperature shift (DMSO Tm minus MBE1-treated Tm) in cellular thermal proteome profiling; higher = less thermal stabilization by MBE1 (negative = stabilized by MBE1)
Settings: A375

Target | melting temperature shift (MBE1 concentration: 100 nM) [°C] | melting temperature shift (MBE1 concentration: 1 uM) [°C]
UniProt Q9UFH2 | -0.0738 | –
INPP5F (UniProt Q9Y2H2) | -1.11 | -0.605
NAGPA (UniProt Q9UK23) | -6.63 | –
ZNHIT2 (UniProt Q9UHR6) | -0.618 | –
UniProt Q9UKI2 | – | -5.75
PARP4 (UniProt Q9UKK3) | 1.33 | 0.421
UniProt Q9UH03 | -0.362 | -0.0201
POLG2 (UniProt Q9UHN1) | – | -1.57
UniProt Q9ULV0 | – | 0.588
UniProt Q9UJU2 | -0.698 | –
AK3 (UniProt Q9UIJ7) | -1.17 | 0
UniProt Q9Y2B0 | -1.05 | –
PPP6R1 (UniProt Q9UPN7) | -0.623 | 1.02
ZC3H7B (UniProt Q9UGR2) | -0.0961 | 0.218
SCML2 (UniProt Q9UQR0) | – | 11.8
UniProt Q9UQ49 | 0.122 | -0.701
SSX2IP (UniProt Q9Y2D8) | 0.0366 | –
CDC23 (UniProt Q9UJX2) | 0.58 | 0.238
ABCG2 (UniProt Q9UNQ0) | – | -1.92
UniProt Q9Y250 | – | -1.32
TSR3 (UniProt Q9UJK0) | -2.98 | -3.64
ATP6V1H (UniProt Q9UI12) | -1.28 | -0.501
UBQLN1 (UniProt Q9UMX0) | – | -3.16
STOML2 (UniProt Q9UJZ1) | -0.914 | -1.89

Target | melting temperature shift (MBE1 concentration: 100 nM) [°C] | melting temperature shift (MBE1 concentration: 1 uM) [°C]
UniProt Q9UNA1 | 2.77 | –
GPN3 (UniProt Q9UHW5) | -3.54 | 4.58
GPATCH8 (UniProt Q9UKJ3) | -1.79 | -0.852
RAB21 (UniProt Q9UL25) | -2.73 | -1.99
VDAC3 (UniProt Q9Y277) | – | -2.83
GMEB2 (UniProt Q9UKD1) | -0.308 | -1.03
UniProt Q9UJ14 | – | -3.24
PA2G4 (UniProt Q9UQ80) | -0.241 | 0.0604
SLC25A13 (UniProt Q9UJS0) | -1.58 | 0.14
ITM2B (UniProt Q9Y287) | – | 1.45
UniProt Q9UK58 | 0.287 | -0.0672
LAMTOR3 (UniProt Q9UHA4) | 0.585 | 1.64
TPX2 (UniProt Q9ULW0) | – | -3.73
UniProt Q9UHY8 | -0.113 | -0.395
UniProt Q9UPW0 | 0.36 | 0.104
APPL1 (UniProt Q9UKG1) | 0.525 | -0.134
PSMD13 (UniProt Q9UNM6) | -0.725 | 0.446
RABGEF1 (UniProt Q9UJ41) | 0.537 | 0.177
PLCL2 (UniProt Q9UPR0) | 0.281 | -0.586
UniProt Q9Y2E5 | -1.09 | 0.788
NOCT (UniProt Q9UK39) | -0.454 | -0.0384
CNOT11 (UniProt Q9UKZ1) | 0.706 | -0.128
UniProt Q9UK61 | -0.895 | -0.263
SNX12 (UniProt Q9UMY4) | 0.782 | 0.0488

Target | melting temperature shift (MBE1 concentration: 100 nM) [°C] | melting temperature shift (MBE1 concentration: 1 uM) [°C]
SYNRG (UniProt Q9UMZ2) | 0.0611 | 0.434
SMG5 (UniProt Q9UPR3) | 0.476 | 0.287
ANAPC5 (UniProt Q9UJX4) | 0.904 | 0.617
PUF60 (UniProt Q9UHX1) | 0.202 | -0.586
IPO11 (UniProt Q9UI26) | 0.0794 | 0.629
C14ORF166 (UniProt Q9Y224) | 1.45 | 0.855
NRBP1 (UniProt Q9UHY1) | -0.281 | 0.189
BAG5 (UniProt Q9UL15) | 0.314 | 0.0244
ATP11B (UniProt Q9Y2G3) | -0.888 | -0.605
TUBGCP4 (UniProt Q9UGJ1) | 0.692 | 0.503
ANKRD50 (UniProt Q9ULJ7) | -0.823 | -0.739
VPS51 (UniProt Q9UID3) | -0.0272 | -0.0822
MAPRE3 (UniProt Q9UPY8) | 0.94 | -0.446
MAGED2 (UniProt Q9UNF1) | -1.03 | -0.429
UniProt Q9UQ88 | -0.418 | -0.874
UniProt Q9UH17 | -0.0047 | -0.989
CFL2 (UniProt Q9Y281) | -0.61 | 0.757
UniProt Q9UHF7 | 0.989 | 0.983
DDX20 (UniProt Q9UHI6) | -0.783 | -0.21
SMC3 (UniProt Q9UQE7) | 0.318 | 0.275
UniProt Q9UGK8 | -0.926 | -0.0515
GGA1 (UniProt Q9UJY5) | 0.0733 | -0.055
UniProt Q9ULG1 | -0.812 | -1.51
ANAPC4 (UniProt Q9UJX5) | -0.171 | 0.446

Target | melting temperature shift (MBE1 concentration: 100 nM) [°C] | melting temperature shift (MBE1 concentration: 1 uM) [°C]
RCOR1 (UniProt Q9UKL0) | -1.37 | -0.752
RASAL2 (UniProt Q9UJF2) | -0.687 | -0.296
TRMT112 (UniProt Q9UI30) | -1.41 | -0.421
BCS1L (UniProt Q9Y276) | -0.244 | 0.775
DDX41 (UniProt Q9UJV9) | -0.275 | -0.0384
RUVBL2 (UniProt Q9Y230) | -1.19 | -1.28
BCAP29 (UniProt Q9UHQ4) | 0.2 | -1.52
DRG1 (UniProt Q9Y295) | -1.1 | 0.53
CNOT7 (UniProt Q9UIV1) | -0.0733 | -0.519
ZNF148 (UniProt Q9UQR1) | -1.79 | 0.684
AKT3 (UniProt Q9Y243) | -0.416 | -0.644
RAB23 (UniProt Q9ULC3) | -0.932 | 0.389
UniProt Q9UI15 | 2.23 | 0.934
UniProt Q9UGU5 | -0.525 | -0.321
ANAPC10 (UniProt Q9UM13) | -0.28 | 0.232
SLC12A4 (UniProt Q9UP95) | -0.476 | 0.402
NAGK (UniProt Q9UJ70) | -0.818 | 0.299
UniProt Q9UGH3 | -1.41 | -2.24
SLC5A6 (UniProt Q9Y289) | -2.8 | -0.522
UniProt Q9UHV7 | 1.39 | 0.214
TAOK2 (UniProt Q9UL54) | -1.36 | -1.52
UniProt Q9Y2E4 | 0.479 | 2.02
UniProt Q9Y251 | -2.02 | -2.29
BAIAP2 (UniProt Q9UQB8) | 0.714 | 0.751

Record cards, as listed above:
BCAP29 (UniProt Q9UHQ4) reads melting temperature shift (MBE1 concentration: 100 nM) [°C]: 0.2; melting temperature shift (MBE1 concentration: 1 uM) [°C]: -1.52
RASAL2 (UniProt Q9UJF2) reads melting temperature shift (MBE1 concentration: 100 nM) [°C]: -0.687; melting temperature shift (MBE1 concentration: 1 uM) [°C]: -0.296
SLC12A4 (UniProt Q9UP95) reads melting temperature shift (MBE1 concentration: 100 nM) [°C]: -0.476; melting temperature shift (MBE1 concentration: 1 uM) [°C]: 0.402
UniProt Q9UI15 reads melting temperature shift (MBE1 concentration: 100 nM) [°C]: 2.23; melting temperature shift (MBE1 concentration: 1 uM) [°C]: 0.934

The list goes on.

Target | melting temperature shift (MBE1 concentration: 100 nM) [°C] | melting temperature shift (MBE1 concentration: 1 uM) [°C]
ACIN1 (UniProt Q9UKV3) | -0.503 | 0.778
USP25 (UniProt Q9UHP3) | 1.01 | 0.806
NUP50 (UniProt Q9UKX7) | -0.818 | -0.359
NUDC (UniProt Q9Y266) | -0.409 | -0.503
UniProt Q9ULJ3 | -0.14 | 0.835
FNDC3A (UniProt Q9Y2H6) | -1.19 | -0.781
FAF1 (UniProt Q9UNN5) | -0.691 | 0.228
ENOPH1 (UniProt Q9UHY7) | 0.946 | 0.623
UniProt Q9UPT6 | -0.147 | 0.0733
UniProt Q9UHB7 | -1.15 | -0.41
UniProt Q9UPN3 | 0.366 | -0.128
PLXNA1 (UniProt Q9UIW2) | -0.791 | 0.341
ANAPC2 (UniProt Q9UJX6) | 0.208 | -0.055
LCMT1 (UniProt Q9UIC8) | -0.986 | 0.104
SLC7A11 (UniProt Q9UPY5) | -0.269 | 2.83
UniProt Q9ULE6 | -0.376 | 0.376
UniProt Q9UL03 | -0.983 | -0.395
RALY (UniProt Q9UKM9) | 0.385 | 0.189
AKAP11 (UniProt Q9UKA4) | 1.28 | -0.0794
AGAP1 (UniProt Q9UPQ3) | 0.806 | 0.672
FBXO2 (UniProt Q9UK22) | -0.0855 | 1.61
UniProt Q9ULD9 | -1.85 | 0.0427
FBXO3 (UniProt Q9UK99) | -0.778 | 0.782
UniProt Q9UGT4 | -4.52 | -4.07
